Results: US9340821B2, “Specific fluorescent probe based on albumin pseudo-esterase hydrolysis reaction and use thereof” (DALIAN INSTITUTE OF CHEMICAL PHYSICS, CHINESE ACADEMY OF …, priority 2013, dated 2016)
At least one compound was matched to its structure with a doubt left.

The chains behind the UniProt entries cited, without tags or fusion partners. Residues count along the entry.
UniProt P02768, 25-609: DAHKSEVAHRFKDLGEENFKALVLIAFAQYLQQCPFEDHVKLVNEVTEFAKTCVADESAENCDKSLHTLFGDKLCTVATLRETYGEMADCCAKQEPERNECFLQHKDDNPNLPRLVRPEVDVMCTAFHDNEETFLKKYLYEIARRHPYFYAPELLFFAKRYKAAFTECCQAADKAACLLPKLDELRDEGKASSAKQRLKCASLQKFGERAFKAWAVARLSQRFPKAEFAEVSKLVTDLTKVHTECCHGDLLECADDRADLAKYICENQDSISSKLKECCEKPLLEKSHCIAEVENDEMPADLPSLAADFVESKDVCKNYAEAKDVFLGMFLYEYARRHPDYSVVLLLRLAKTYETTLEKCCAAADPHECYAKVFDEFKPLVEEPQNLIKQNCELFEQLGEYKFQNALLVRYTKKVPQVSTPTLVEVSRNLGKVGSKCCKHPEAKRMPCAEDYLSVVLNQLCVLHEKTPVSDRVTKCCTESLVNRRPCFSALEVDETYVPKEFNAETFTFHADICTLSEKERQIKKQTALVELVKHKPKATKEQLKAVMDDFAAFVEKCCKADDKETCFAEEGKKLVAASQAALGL

Target: human serum albumin (HSA) (Homo sapiens, UniProt P02768)
Assay: Quantitative working curve of HSA
Format: biochemical
Conditions: HSA 0-1000 mg/L, 37° C., 30 min; λex/λem 342/416 nm and 452/564 nm

In the case of `CCCCN1C(=O)c2cccc3c(OC(=O)c4ccc(C)cc4)ccc(c23)C1=O` [Probe B, N-n-butyl-1,8-naphthalimide-4-(4-methylphenylbenzoate)], the “working curve equation (fluorescence intensity ratio of B1 to B versus the concentration of HSA)” value is reported as “Y=0.005578×X+0.04533”.
